From patent KR20120049206A
Results are given in words; binding and its absence hold for the method and conditions named. Where a sequence is shown, tags or fusion partners need not be part of it.

B1: GFP 단일 도메인 항체 13C2 (VHH)
VHH: GGGGSVQAGGSLRLSCAASGYISDSHGRNCMGWFRQAPGKEREAVARIYSRLGTTYYADSVKGRFTISRDNAKNTLYLQMHSLKPEDTAMYYCAAVGGLCIDKETPTDYPFWGQGTQVTVSS
B2: GFP 단일 도메인 항체 3H8 (VHH)
VHH: ESGGGSVQSGGSLRLSCVASGSTDRPAYMAWFRQAPGKEREGVATIYTEFGSQYYADSVKGRFTISQDNAKRTAYLQMNSLKPEDTAMYYCAATTAFRVLGTRKLDAAQYAYWGQGTQVTVSS
B3: GFP 단일 도메인 항체 2G9 (VHH)
VHH: ESGGGSVQAGGSLRLSCVVSRSTYTSNCMGWFRQAPGKEREEVASIYTGGGITYYADSVKGRFTVSQDNAKNTVYLQMNSLKPEDTAMYYCAAGRGSWSCGMGPDEYKYWGQGTQVTVSS
B4: GFP 단일 도메인 항체 8G4 (VHH)
VHH: ESGGGSVQAGGSLRLSCAAPRSTYTSNCMGWFRQAPGKEREEVASIYTGGDITYYADSVKGRFTMSQDNARSTVYLQMNSLKPEDTAMYYCAAGRGSWSCGSGPDEYKYWGQGTQVTVSS
B5: GFP 단일 도메인 항체 8B9 (VHH)
VHH: ESGGGSVQAGGSLRLSCAASGYTVSRGCMAWFRQVPGKEREGVAAINSGDGTTYYADSVKGRFTISQDNAKNTVYLQMNSLEPEDTSIYYCAASRLRCPWNLVSASWYDFWGQGTQVTVSS
B6: GFP 단일 도메인 항체 9H11 (VHH)
VHH: SGGGSVQSGGSLRLTCAASGRTSSISYMGWFRQSPGKEREGVAFIDRRDSTTYADLVKGRFTISRDNARNTLYLQMNSLKPEDTAMYYCAARIRGYYSRPALSADFDYWGQGTQVTVSS
B7: GFP 단일 도메인 항체 11F5 (VHH)
VHH: ESGGGSVQSGGSLRLSCSGVTGSDYCLGWFRQAPGREREGVAASSRYGSTYYGDFVRGRFTISRDSAKNTLILQMNNLQPEDTAMYYCAASRRVGSCSTYERVFAYWGQGTQVTVSS
B8: GFP 단일 도메인 항체 13H2 (VHH)
VHH: ESGGGSVQAGGSLKLSCAASGYISSNCMGWFRQAPGKEREGVASIYRGYGNTYYTDSVKGRFTISQDNAKNTIYLQMNSLKPEDTARYYCAAVNCARWPFDREYNYWGQGTQVTVSS
B9: GFP 단일 도메인 항체 2G2 (VHH)
VHH: EWGGSVQAGGSLRLSCSASGFASSPGCMAWFRQAPGKEREGVAEIATRSGSAYYADSVKGRFTISQDNAKNTLYLQMNSLKPEDTAIYYCAASRLRCTPAADFSRIPAYAMDYWGKGTQVTVSS
B10: GFP 단일 도메인 항체 10A8 (VHH)
VHH: SLGGGSVQAGGSLRLSCAASGFAMSTYCMAWFRQAPGKEREGVATLSPLGILSHYADSVKGRFTVSRDNAKNTLSLQMNSLIPEDTAMYYCAAMPRPDGGAHGCVSWLAYNFWGQGTQVTVSS
B11: GFP 단일 도메인 항체 7C8 (VHH)
VHH: SWGGSVQTGGSLGLSCTTSLDGYSSVCMGWFRQTPGKEREGVATIHRAFGDTYYADSVKGRFTISEDSAKNTVYLRMNSLKPEDTGMYYCAAGRPKSGSAWNCRDAEYVYWGQGTQVTVSS

Target: RFP (Red Fluorescent Protein)
Assay: phage ELISA, RFP coated on the plate, anti-M13-HRP

binding, no binding:
B1
B2
B3
B4
B5
B6
B7
B8
B9
B10
B11
